Data as given in PubChem BioAssay AID1224826 (NIAID, 2016).

Assay: 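Knock-downs that raise or lower Tnf reporter signal after endotoxin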 (primary screen)
Cell system: RAW264.7 G9 macrophages from mouse bearing reporters for p65 (GFP) and the Tnf promoter (mCherry)
Reagents: siRNA pool against mouse genes, 100 nM
Time to read-out: 16 h of LPS stimulation, after 2 days of siRNA transfection
Conditions: bacterial lipopolysaccharide (Salmonella minnesota R595), 10 ng/ml
Detection: 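Nuclear mCherry signal of the Tnf promoter reporter measured by imaging after background removal, scaled to each plate median and turned into robust z-scores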
Direction: Tnf reporter robust z-score: higher = stronger Tnf promoter reporter signal after LPS
Active means: 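a well counts as active at a score of -1.3 or below (Tlr4 knock-down control median) or above 3 (raised signal); controls and wells holding fewer than 50 cells are excluded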
Meaning of the calls: active = Tnf reporter clearly lowered or raised; inactive = no clear change in Tnf reporter
Shown is one part, drawn at random, of about 17,000 reagents. About 1,110 of all reagents (6.6%) were called active. 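Active means lowered or raised reporter signal; replicate intensities are raw and not normalised per plate.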 A number with no mark means an inactive call. Further read-outs or replicates are left out here.

What is on record for Vps26a (GeneID 30930)?
Tnf reporter robust z-score: 2.04; fewer than 50 cells in well: enough cells in well

What is on record for Ildr1 (GeneID 106347)?
Tnf reporter robust z-score: 3.2 (active); fewer than 50 cells in well: enough cells in well

For Cyp2b13 (GeneID 13089), what does the deposit list?
Tnf reporter robust z-score: 0.67; fewer than 50 cells in well: enough cells in well

What is on record for Ormdl2 (GeneID 66844)?
Tnf reporter robust z-score: 1.3; fewer than 50 cells in well: enough cells in well

With Ccdc88c (GeneID 68339), what does the deposit list?
Tnf reporter robust z-score: 1.24; fewer than 50 cells in well: enough cells in well

For Elovl2 (GeneID 54326), what was measured?
Tnf reporter robust z-score: -0.46; fewer than 50 cells in well: enough cells in well

For Kcnk4 (GeneID 16528), what does the deposit list?
Tnf reporter robust z-score: 0.45; fewer than 50 cells in well: enough cells in well

What is on record for Gps1 (GeneID 209318)?
Tnf reporter robust z-score: -0.08; fewer than 50 cells in well: enough cells in well

What did the screen give for B3galnt2 (GeneID 97884)?
Tnf reporter robust z-score: 0.55; fewer than 50 cells in well: enough cells in well

With Gas2l1 (GeneID 78926), how do the results read?
Tnf reporter robust z-score: 0.15; fewer than 50 cells in well: enough cells in well

For Prom2 (GeneID 192212), what does the deposit list?
Tnf reporter robust z-score: 1.04; fewer than 50 cells in well: enough cells in well

With Tsga8 (GeneID 100502723), what was measured?
Tnf reporter robust z-score: -0.26; fewer than 50 cells in well: enough cells in well

With Tsc22d4 (GeneID 78829), how do the results read?
fewer than 50 cells in well: fewer than 50 cells per well; well left out of calls

With Slc35g1 (GeneID 240660), what was measured?
Tnf reporter robust z-score: 1.02; fewer than 50 cells in well: enough cells in well

Which result is listed for Tbc1d19 (GeneID 67249)?
Tnf reporter robust z-score: 0.99; fewer than 50 cells in well: enough cells in well

For Pitpnm3 (GeneID 327958), what does the deposit list?
Tnf reporter robust z-score: -0.69; fewer than 50 cells in well: enough cells in well

With Slc12a8 (GeneID 171286), what does the deposit list?
Tnf reporter robust z-score: 1.51; fewer than 50 cells in well: enough cells in well

For Atg3 (GeneID 67841), how do the results read?
Tnf reporter robust z-score: -0.39; fewer than 50 cells in well: enough cells in well

How did the screen score Or4b13 (GeneID 406186)?
Tnf reporter robust z-score: 1.77; fewer than 50 cells in well: enough cells in well

Which result is listed for Pcyt1a (GeneID 13026)?
Tnf reporter robust z-score: 0.66; fewer than 50 cells in well: enough cells in well

Which result is listed for Tmem79 (GeneID 71913)?
fewer than 50 cells in well: fewer than 50 cells per well; well left out of calls

Laid out differently: entries from further up
Gene | Tnf reporter robust z-score | fewer than 50 cells in well
Atg3 (GeneID 67841) | -0.39 | enough cells in well
Or4b13 (GeneID 406186) | 1.77 | enough cells in well
Pcyt1a (GeneID 13026) | 0.66 | enough cells in well
